Measured values reported in paper PMC4703986.
These are yes or no findings as the source states them, for the method shown. Binding calls can cover weak binding; strength is not graded here. For some assays here: Tags and fused reporters may be left off the sequences shown.

The chains behind the UniProt entries cited, without tags or fusion partners.
UniProt Q15819: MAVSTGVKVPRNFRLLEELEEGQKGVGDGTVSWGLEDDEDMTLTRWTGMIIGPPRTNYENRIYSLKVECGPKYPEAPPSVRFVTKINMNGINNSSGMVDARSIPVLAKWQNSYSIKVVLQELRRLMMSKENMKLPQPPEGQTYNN
UniProt Q13404: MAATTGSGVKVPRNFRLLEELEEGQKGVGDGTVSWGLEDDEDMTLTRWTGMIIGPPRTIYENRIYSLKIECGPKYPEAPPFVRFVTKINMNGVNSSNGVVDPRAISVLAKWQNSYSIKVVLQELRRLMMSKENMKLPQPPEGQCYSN
UniProt Q9CAB6: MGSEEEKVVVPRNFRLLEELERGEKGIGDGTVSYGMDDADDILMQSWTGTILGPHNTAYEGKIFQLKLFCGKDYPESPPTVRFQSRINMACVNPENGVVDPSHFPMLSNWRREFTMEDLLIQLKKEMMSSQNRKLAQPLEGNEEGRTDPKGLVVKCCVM
UniProt Q93YP0: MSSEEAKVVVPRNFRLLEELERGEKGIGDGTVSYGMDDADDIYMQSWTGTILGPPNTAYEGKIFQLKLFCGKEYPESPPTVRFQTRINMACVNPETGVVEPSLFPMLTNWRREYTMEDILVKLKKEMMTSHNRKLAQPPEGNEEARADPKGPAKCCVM
UniProt Q9SJ44: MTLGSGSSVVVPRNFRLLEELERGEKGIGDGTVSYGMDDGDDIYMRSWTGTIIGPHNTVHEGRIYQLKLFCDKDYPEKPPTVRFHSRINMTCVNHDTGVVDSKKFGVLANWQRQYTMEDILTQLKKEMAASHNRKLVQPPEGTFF
UniProt Q9SVD7: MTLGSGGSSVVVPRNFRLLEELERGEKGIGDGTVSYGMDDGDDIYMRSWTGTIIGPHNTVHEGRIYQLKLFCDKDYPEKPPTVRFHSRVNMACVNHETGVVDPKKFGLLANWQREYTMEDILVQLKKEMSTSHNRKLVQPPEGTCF

Columns and labels:
Assay in all cases: two-hybrid; yeast strain PJ69-4a co-transformed with one Gal4AD (pGAD424) and one Gal4BD (pGBT9) plasmid; growth on synthetic complete medium lacking Trp, Leu and His with 3-AT (5 mM 3-AT named for Figure 2A); 3 days
[1] = molecular target: T1, yeast Uev1 (yMms2), yeast two-hybrid fusion (budding yeast (S. cerevisiae)) (UniProt P53152)
T1 sequence: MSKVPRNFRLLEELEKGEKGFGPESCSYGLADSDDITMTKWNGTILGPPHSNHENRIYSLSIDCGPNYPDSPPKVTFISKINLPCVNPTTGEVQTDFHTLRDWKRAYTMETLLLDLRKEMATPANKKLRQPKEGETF

[2] = molecular target: human Mms2 (hMms2), yeast two-hybrid fusion (human) (UniProt Q15819)
[3] = molecular target: human Uev1 (hUev1), yeast two-hybrid fusion (human) (UniProt Q13404)
[4] = molecular target: Arabidopsis Uev1B (AtUev1B), yeast two-hybrid fusion (Arabidopsis) (UniProt Q9CAB6)
[5] = molecular target: Arabidopsis Uev1A (AtUev1A), yeast two-hybrid fusion (Arabidopsis) (UniProt Q93YP0)
[6] = molecular target: Arabidopsis Uev1C (AtUev1C), yeast two-hybrid fusion (Arabidopsis) (UniProt Q9SJ44)
[7] = molecular target: Arabidopsis Uev1D (AtUev1D), yeast two-hybrid fusion (Arabidopsis) (UniProt Q9SVD7)

Measured: binding

BdUbc13B (Brachypodium distachyon Ubc13B), yeast two-hybrid fusion (enzyme)
binds: [1]

BdUbc13A (Brachypodium distachyon Ubc13A), yeast two-hybrid fusion (from UniProt I1HGH6) (enzyme)
binds: all assays above
